Results from the RNAGym collection of RNA variant scans (doi:10.1126/science.aae0568).
This sample is rich in variants without activity.

B1: tRNA (parent)
chain: GUUCCGUUGGCGUAAUGGUAACGCGUCUCCCUCCUAAGGAGAAGACUGCGGGUUCGAGUCCCGUACGGAACG

Variants of: B1
Assay: yeast fitness relative to wild type (ratio to wild type); higher = fitter; tRNA-Arg(CCU), competitive growth, 37 C, YPD
Summary of the method: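 For this measurement, the tRNA-Arg(CCU) gene was varied by chemical synthesis at a 3% per-site mutation rate across 69 sites, and each variant was placed at the native genomic locus in Saccharomyces cerevisiae. The pooled strains went through a 24-hour competition in YPD at 37°C in six parallel replicates, with amplicons from start and end populations read by 100-nucleotide paired-end sequencing. Darwinian fitness relative to wild type followed from the change in each genotype's frequency. Genotypes needed ≥ 100 starting reads, and estimates < 0.5 were set to 0.5.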

Question: For GUUCCGUUGGCGUAAUGAUAUCGCGUCUCCCACCUAAGGAGAAGACUGCGGGUUCGAGUCCGGUGCGGAACG [G18A A21U U32A C62G A65G], which yeast fitness is on record?
Answer: ≤ 0.5

Question: With GUUCCGUUGGCGUUAUGGUACCGCGUCUUCCUCCUAAGGAGAAGACUGCGGGCUUGAGUCCCGUACGGAGCG [A14U A21C C29U U53C C55U A70G] as the variant, how does the yeast fitness read?
Answer: ≤ 0.5

Question: With GUUCCGUUGGCGUAAUGGUAACGCGUCACCCUCCUAAGGAGAAGACUGCGGGUUGGAGUCCCGUACGGAGCG [U28A C55G A70G] as the variant, how does the yeast fitness read?
Answer: ≤ 0.5

Question: For GUUUCGUUGGCGUAAUGGUAAAGCGUCUCCCUCCUAAGGAGAAGUCUGCGGGUUCGAGUCCCGUAUGGAACG [C4U C22A A45U C66U], which yeast fitness is on record?
Answer: ≤ 0.5

Question: For GUUCCGUUGGCGUAAUGGUAACGCGUCACCCUCCUAUGGAGAAGACUGCGGGUUCGAGUCCGGUACCGAACG [U28A A37U C62G G67C], which yeast fitness is on record?
Answer: ≤ 0.5

Question: For GUUCCGUUGGCGUAAUGGUAACACGUCUCCCUCCUAAGGAGAAGCCUGCGGGUCCGAGUCCCGUACGGAACG [G23A A45C U54C], which yeast fitness is on record?
Answer: ≤ 0.5

Question: Which yeast fitness does the source give for GUUCCGUUGGCGUAAUGGUAACGCGUCUGCCUCCUCAGGAAAAGACUGCAGGCUCGAGUCCCGUUCGGAUCG [C29G A36C G41A G50A U53C A65U A70U] here?
Answer: ≤ 0.5

Question: For GUUCGGUUGGCGUUAUGGUAACGCGUCUCCCUGCUAAGGAGAUGACUGCGGGUUCGAGUCCCGUAAGGAACG [C5G A14U C33G A43U C66A], which yeast fitness is on record?
Answer: ≤ 0.5

Question: With GUUCCGUUGGCGUAAUGGUGACGCCUCUCCCUCCUAAGGAGAAGACUGCGGGUUCGAGUCCCGUACGGAACG [A20G G25C] as the variant, how does the yeast fitness read?
Answer: 0.985

Question: With GUUCCGUUGGCGUAAUGGUAACGCGUCUCCCCACUAAGGAGAAGACUGCGCGUUCGAGUCCCGUACGAAACG [U32C C33A G51C G68A] as the variant, how does the yeast fitness read?
Answer: ≤ 0.5

Question: Which yeast fitness does the source give for GUUCCGUAGGCGUAAUGGUAACGCCUCUCCCUCCUACGGAGAAGACUGCGGGUUCGAGUCCCGUACGGAACG [U8A G25C A37C] here?
Answer: ≤ 0.5

Question: Which yeast fitness does the source give for GUUUAGUUGGCGUAAUGGUAACGCGUCUCCCUCCUAAGGAGAAGACUGCGGGUUCGAGUCUCGUACGGAACG [C4U C5A C61U] here?
Answer: 0.719

Question: Which yeast fitness does the source give for GUUCCGUUGGUGUAUAGGUAACGCGUCUCCCUCCUACGGAGAAGACUGCGGGUUCGAGUCCCGUCCGGACCG [C11U A15U U16A A37C A65C A70C] here?
Answer: ≤ 0.5

Question: For GUUCCGUUGGCGUAAUGGCAACGCGUCUCCCUCCCAAGGAGAAGACUGUGGGUUCGAGUCGCGUACGGAACG [U19C U35C C49U C61G], which yeast fitness is on record?
Answer: ≤ 0.5

Question: For GUUCCGUUGGGGUAAUGGUAACGCGUCUCCCUCCUAAGGAGAAGAAUGCGGGUUCCAGUCCCGUACGGAACG [C11G C46A G56C], which yeast fitness is on record?
Answer: ≤ 0.5

Question: For GUUCCGGUGGCGUAAUGGUGACGCGUUUCCCUCCUAAGGAGAAGACUGGGGCUUCGAGUCCCGUACGGAACG [U7G A20G C27U C49G G52C], which yeast fitness is on record?
Answer: ≤ 0.5

Question: Which yeast fitness does the source give for GUUCCGUUGGCGUAAUGGUUACGCGUCUCCCUCCUAACGAGAAGACUGCCGGUUCGAGUCCCGUCCGGAACG [A20U G38C G50C A65C] here?
Answer: ≤ 0.5

Question: For GUUCCGUUGGCGUAAUGGUAACGCGUCUCCCUCCUAAGGAGAAGACUGCGGGUUCGCGUGCCGUACGGAACG [A57C C60G], which yeast fitness is on record?
Answer: 0.503

Question: For GUUCCGUUGGCGUAAUGGUCACGCGCCUCCCUCCUAAGGAGAAGACUGCGGGUUCGAGUACCGUUCGGAACG [A20C U26C C60A A65U], which yeast fitness is on record?
Answer: ≤ 0.5

Question: With GUUCCGUUGGCGUGAUGGUAACGAGUCUCCCUCCUGAGGAGAAGACUGCGGGUUCGAGUCCCGAACGGAACG [A14G C24A A36G U64A] as the variant, how does the yeast fitness read?
Answer: ≤ 0.5

Question: For GUUCCGUUGGCGUAAUGGUAACGCGUCUCCCUCCUAGGGAGAAGACUGCGGGUUCGGGUCCCGUACGGAACG [A37G A57G], which yeast fitness is on record?
Answer: 0.87

Question: For GUUCCGUUGGCGUAAUGGUAACGCAUCUCCCUCCUAGGGAGAAGCCUGCGGGUUCGAGUCCCGUAUCGAACG [G25A A37G A45C C66U G67C], which yeast fitness is on record?
Answer: ≤ 0.5

Question: Which yeast fitness does the source give for GUUCCGUUGGAGUAAUGGUAACGCGUCUCCCUCCUAAGGAGAGGACUGCGGGUCCGAGUCCCGUAGCGAACG [C11A A43G U54C C66G G67C] here?
Answer: ≤ 0.5

Question: With GUUCCGUUGGCGGAAUGGUAACGCGGCUCCCUCCUAAGGAGAAGACUGCGGAUUCGAGUCCCGUACGGAACG [U13G U26G G52A] as the variant, how does the yeast fitness read?
Answer: ≤ 0.5

Question: With GUUCGGUUCGCGUAAUGGUAACGCGUUUCUCUCCUAAGGAGAAGACUGCGGCUUCGAGUCCCGUACGGAACG [C5G G9C C27U C30U G52C] as the variant, how does the yeast fitness read?
Answer: ≤ 0.5

Question: Which yeast fitness does the source give for GUUCCGUUGGAGUAAUGGUAACGCGUCUCCCUCCUAAGGAGAAGACUGCGGGUUCGAGUGCGGUACGGAACG [C11A C60G C62G] here?
Answer: ≤ 0.5

Question: Which yeast fitness does the source give for GUUCCCUUGGCGUAAUGGUAACGCGUCUCCCUCCUAAGGAGAAGACUGCGGCUUCGAGUCCCGUACGGAACG [G6C G52C] here?
Answer: 0.653

Question: For GUUCCGUUGGCGUAAUGGUAACGCGUCUCCCUCGAAAGGAGAAGACUGCGGGUUCGUGUCCCGUACGGAACG [C34G U35A A57U], which yeast fitness is on record?
Answer: ≤ 0.5

Question: For GUCCCGUUGGCGUAAUGGUAACGCGUCUCCCUCCAAAGGAGAAGACUCCGGGUUCGAGUCUCGUACGGAACG [U3C U35A G48C C61U], which yeast fitness is on record?
Answer: ≤ 0.5

Question: With GUUCCGUUGGGGUAAUGGUAACGCGUCUCCCUCCUAAGGAGAAGACUGCGGGCUUGAGUCCCGUACGGAACG [C11G U53C C55U] as the variant, how does the yeast fitness read?
Answer: ≤ 0.5

Question: Which yeast fitness does the source give for GUUCCGUUGGCGUAAUAGUAACGCGUCUCCCUCCUUAGGAGAAGACUGCGGGUUCGAGUCCCGUACGAAACG [G17A A36U G68A] here?
Answer: ≤ 0.5

Question: Which yeast fitness does the source give for GUUGCGUUGGCGUACUGGUAACGCGUCUCCCUCCUAAGGAGAAGACUGCGGGUUCGUGUCGCGUACGGAACG [C4G A15C A57U C61G] here?
Answer: ≤ 0.5

Question: Which yeast fitness does the source give for GUUCCGUUGGCGUAAUGGUAACGCGUCUCCCUCCUAAGGAGAAGCCUGCGCGUUCGAGUCCCGCACGGAACG [A45C G51C U64C] here?
Answer: ≤ 0.5

Question: For GUUCCGUUGGCGUAGUGGUAACGCGUCUCCCUCCUAAGGAGAAGACUGCGGGUAUGAGUCCCGUAAGGAACG [A15G U54A C55U C66A], which yeast fitness is on record?
Answer: ≤ 0.5

Question: For GUUGCGUUGGCGUAAUGGUAACGCGUCGCACUCCUAAGGAGACGACUGCGGGUUCGAGUCCCGUACGGAACG [C4G U28G C30A A43C], which yeast fitness is on record?
Answer: ≤ 0.5

Question: For GUUCCGUUGGCGUAAUGGUAACGCGUCUCGCUCCUAAGGAGAAGACUGCGGGUUCGCGUCCCGUACGGAACG [C30G A57C], which yeast fitness is on record?
Answer: ≤ 0.5

Question: For GUUCCGUUGGCGUAAUGGUAACGCGUCUCCCUCCUAAGGAAAAAACUGCGGGAUCGAGUCCCGUAUGGAACG [G41A G44A U53A C66U], which yeast fitness is on record?
Answer: ≤ 0.5

Question: For GUUUCGUUGGAGUAAUGGUAACGCGUCACCUCCCUAAGGAGAAGACUGCGCGUUCGAGUCCCGUACGGAACG [C4U C11A U28A C31U U32C G51C], which yeast fitness is on record?
Answer: ≤ 0.5
